Measured values as given in patent US20110250130A1 (AbbVie / Abbott, published 2011).
Where a chain is given by its changes, count along the chain named. No constants are given. Whether binding was seen depends on the method and setting. A result given as binding can be weak or reduced; the word gives no strength.

B1: AB259 (antibody, V domains shown)
VH: EVQLVESGGGLVQPGGSLRLSCAVSGFTLSDYGVNWVRQAPGKGLEWLGMIWGDGSTDYDSTLKSRLTISKDNSKSTIYLQMNSLRAEDTAVYYCAREWHHGPVAYWGQGTLVTVSS
VL: EIVMTQSPATLSLSPGERATLSCKASQAVSSAVAWYQQKPGQSPRLLIYWASTRHTGVPARFSGSGSGTDFTLTISSLQPEDFAVYYCQQHYSTPFTFGQGTKLEIK
notes: also called hMAK195VH.2a / hMAK195VL.2a
B2: AB263 (antibody, V domains shown)
VH: B1 VH with V24A, L48V, G49S, L67F, S76N, I78L
VL: B1 VL
notes: also called hMAK195VH.2b / hMAK195VL.2a
B3: murine anti-human TNF-α monoclonal antibody MAK195 (antibody, V domains shown)
VH: QVQLKESGPGLVAPSQSLSITCTVSGFSLTDYGVNWVRQPPGKGLEWLGMIWGDGSTDYDSTLKSRLSISKDNSKSQIFLKMNSLQTDDTARYYCAREWHHGPVAYWGQGTLVTVSA
VL: DIVMTQSHKFMSTTVGDRVSITCKASQAVSSAVAWYQQKPGQSPKLLIYWASTRHTGVPDRFTGSGSVTDFTLTIHNLQAEDLALYYCQQHYSTPFTFGSGTKLEIKR

Biological target: Recombinant Human TNF-α/TNFSF1A (human)
Assay: SPR (Biacore)

Binder	binding
B1	binds
B2	binds
B3	binds
